Laboratory results: PubChem BioAssay AID1159584 (Peter MacCallum Cancer Centre, 2016)
In all, the deposit lists about 18,000 reagents; below is an unselected part. Further read-outs or replicates are left out here. Not stated in the record: the amount of reagent, the time to read-out.

- Screen: 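Knock-downs that harm CDH1-null cells more than parental MCF10A cells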 (primary screen)
- System: human MCF10A breast epithelial cells, parental and CDH1-null
- Reagents: siRNA against human genes
- Measurement: 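Cell viability by CellTiter-Glo ATP luminescence, each line scaled to the mean of mock wells across plates, then CDH1-null over parental ratio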
- Direction: CDH1-null / parental viability ratio: higher = CDH1-null cells survive relatively better than parental; CDH1-null viability vs mock: higher = more viable CDH1-null cells

What is on record for OTOL1 (GeneID 131149)?
CDH1-null / parental viability ratio: 0.96; CDH1-null viability vs mock (fraction of mock): 0.8

How did the screen score RANBP10 (GeneID 57610)?
CDH1-null / parental viability ratio: 1.05; CDH1-null viability vs mock (fraction of mock): 1.02

With RASGRF2 (GeneID 5924), what does the deposit list?
CDH1-null / parental viability ratio: 1.27; CDH1-null viability vs mock (fraction of mock): 0.76

For CD96 (GeneID 10225), how do the results read?
CDH1-null / parental viability ratio: 1.07; CDH1-null viability vs mock (fraction of mock): 0.98

For TBL2 (GeneID 26608), what does the deposit list?
CDH1-null / parental viability ratio: 1.02; CDH1-null viability vs mock (fraction of mock): 0.84

What did the screen give for SLC4A7 (GeneID 9497)?
CDH1-null / parental viability ratio: 0.87; CDH1-null viability vs mock (fraction of mock): 0.67

How did the screen score ANKRD20A1 (GeneID 84210)?
CDH1-null / parental viability ratio: 1; CDH1-null viability vs mock (fraction of mock): 0.74

Entries above whose gene name begins with R or r:
RANBP10 (GeneID 57610): CDH1-null / parental viability ratio = 1.05; CDH1-null viability vs mock (fraction of mock) = 1.02
RASGRF2 (GeneID 5924): CDH1-null / parental viability ratio = 1.27; CDH1-null viability vs mock (fraction of mock) = 0.76

Further results follow:
For DSEL (GeneID 92126), what was measured?
CDH1-null / parental viability ratio: 1.05; CDH1-null viability vs mock (fraction of mock): 0.64

For ATIC (GeneID 471), what does the deposit list?
CDH1-null / parental viability ratio: 0.92; CDH1-null viability vs mock (fraction of mock): 0.74

For SNX16 (GeneID 64089), what does the deposit list?
CDH1-null / parental viability ratio: 1.13; CDH1-null viability vs mock (fraction of mock): 1.15

For CAPNS2 (GeneID 84290), how do the results read?
CDH1-null / parental viability ratio: 1.1; CDH1-null viability vs mock (fraction of mock): 1.06

Which result is listed for STX2 (GeneID 2054)?
CDH1-null / parental viability ratio: 0.91; CDH1-null viability vs mock (fraction of mock): 0.86

What did the screen give for TTLL10 (GeneID 254173)?
CDH1-null / parental viability ratio: 0.91; CDH1-null viability vs mock (fraction of mock): 0.64

What is on record for FLG2 (GeneID 388698)?
CDH1-null / parental viability ratio: 1.3; CDH1-null viability vs mock (fraction of mock): 0.6
